Results are given in words; binding and its absence hold for the method and conditions named. A result given as binding can be weak or reduced; the word gives no strength. Tags and fused reporters may be left off the sequences shown. For some of these results: In cells and extracts the contact can be indirect.
Tests used:
[1] = biological target: BD-VdCmr1 (Verticillium dahliae); assay: two-hybrid; one-to-one Y2H in yeast Y2Hgold; prey in pGADT7, bait in pGBKT7; growth and blue colour on QDO (SD lacking Leu, Trp, His, Ade) with 3AT, 0.1 ug/mL AbA and 20 ug/mL X-a-Gal, 5 days
[2] = biological target: VdCmr1-YFP^N (Verticillium dahliae); assay: split reporter; BiFC with YFP^N (pHZ65) and YFP^C (pHZ68) fusions co-transformed into protoplasts of V. dahliae WT strain AT13; YFP signal by fluorescence microscopy, cell wall stained with CFW

| Binder | binding [1] | binding [2] |
| --- | --- | --- |
| AD-VdZFP1 (protein, UniProt G2XER1 1-585) MTYHIFHLDRRLTQGPFYPEHQDYGQNQASHTEDALNFDMPPPIDPNLEQGLTAHLGTVSWPGVHTHQLKQYMVGPSTSLFALGQFQANYAYSQHDVNPLPPVSQGRHGSPFSQHHSSSCSDSLSPPTEIDVLPSTPPDMSATSPFSQAIKFQPSWDAQQSRLYTLRGIVPTQENPYVSLLEVNPSQDIFENEKAPEYDGSMALSFSSAGSQSEMEVQVKDEIFVAHSHSQPTYPDPDYEERDQSELEAEEMIMKHEDEDKEWTPHPSRKRTRSDANKAQYVATRPARKRSKVHALPRAVPSKSSHEAPHSTKHVLSCEACAQGPFRDEAALQKHMKGKHIRPFVCIFNFAGCSSSFPSKNEWKRHVVTQHLALSFWHCKQDACESCTNPASASQQGSPATDTPSPLPRGAIFNRKDLYTQHVRRMHVPPPIAKALRLRKPTPEWDDRLREMQTEAERRRCELPTHMQCPASGCDMVFSGANAWDERMEHVAKHLEKASEGREPMLSFGGDGDPTLTNWAASPGVGVVRKTDTGEWELMHPLRGQPASAGGIAKRGAKGHSSSSPQAARYEEESAEDVDADGEED | binds | – |
| AD-VdZFP2 (protein, UniProt G2XEQ9 1-886) MSKASGSYATHDRDSLPSFIGAQPRDLFPSPSQLGPPYRLTRVVGMDSSRPQPFHLPGQDVLTDVNLTPGGGDAPLRGIPKPWNILKFYDATADDSPWVPLGIIVPDHRAGQGQHQNSPTALRDAFAPRYSEWRSPGPSECDTLPPGQLPSDSGYESRRTKQSIANASVFGDVDRGHETQSLTGRMDGFDPFAGMSSTPSYTGNSANNHAYMTETCGLSTLRTRGTAHSTVIICPDCGSHLKTKSELNKHKQRHSKPHKCDVSGCSREEGFSTINDLDRHKRSVHRDTDTGGPRYRCHLAPCHNKKKIWPRADNFRSHLRRLHGVRAVDDDLAQYLIPSQQQDVGSLTEGMDASDSTIESFRFTPYDQEMPPSMWANHQSQDLEMTHLVVDSTGPRTELDISVASPASHGFSGLGEPNTGHAVRELPLGIMQGGNPQQRGMNCRKHLNLTQCGMDSNSNTSDATTPPETTLAPHPLMGGNLRNPSMEIEQNPTADRSDQVNPSDTSASEADADSSSEDLHEQENLMRRNDHSEVSHDPKAISAGSLVEVIKTPPFLSQGIDTGGAHNISPTSTQDITMTDQQINEFLQAVPEALLEKFLRERHNPFRIEPIKARTTVQANAQHPCPGCHKSFQRRCDLKKHIKRHDKPYGCTFLNCDKSFGSKNDWKRHETSQHTQLEVWKCNERASKGVGTICGKVFPRREDFKVHLQGTHNFRDVSALEAELHSCRIGRDCGLRYWCGFCEKIMEISHPAMQPSTKRFDHIDDHFCGRNTDKRSISDWKHLETELSASGSTPSSDKMETPKSSPEHQATARVSPSKNGRLVSDSTLPGKRKLDDDSECPESRRPRGRLATMWTCCNCTMQSSFRFNRACVSCSHSRCVDCPVET | binds | – |
| VdZFP1-YFP^C (protein, UniProt G2XER1 1-585) MTYHIFHLDRRLTQGPFYPEHQDYGQNQASHTEDALNFDMPPPIDPNLEQGLTAHLGTVSWPGVHTHQLKQYMVGPSTSLFALGQFQANYAYSQHDVNPLPPVSQGRHGSPFSQHHSSSCSDSLSPPTEIDVLPSTPPDMSATSPFSQAIKFQPSWDAQQSRLYTLRGIVPTQENPYVSLLEVNPSQDIFENEKAPEYDGSMALSFSSAGSQSEMEVQVKDEIFVAHSHSQPTYPDPDYEERDQSELEAEEMIMKHEDEDKEWTPHPSRKRTRSDANKAQYVATRPARKRSKVHALPRAVPSKSSHEAPHSTKHVLSCEACAQGPFRDEAALQKHMKGKHIRPFVCIFNFAGCSSSFPSKNEWKRHVVTQHLALSFWHCKQDACESCTNPASASQQGSPATDTPSPLPRGAIFNRKDLYTQHVRRMHVPPPIAKALRLRKPTPEWDDRLREMQTEAERRRCELPTHMQCPASGCDMVFSGANAWDERMEHVAKHLEKASEGREPMLSFGGDGDPTLTNWAASPGVGVVRKTDTGEWELMHPLRGQPASAGGIAKRGAKGHSSSSPQAARYEEESAEDVDADGEED | – | binds |
| VdZFP2-YFP^C (protein, UniProt G2XEQ9 1-886) MSKASGSYATHDRDSLPSFIGAQPRDLFPSPSQLGPPYRLTRVVGMDSSRPQPFHLPGQDVLTDVNLTPGGGDAPLRGIPKPWNILKFYDATADDSPWVPLGIIVPDHRAGQGQHQNSPTALRDAFAPRYSEWRSPGPSECDTLPPGQLPSDSGYESRRTKQSIANASVFGDVDRGHETQSLTGRMDGFDPFAGMSSTPSYTGNSANNHAYMTETCGLSTLRTRGTAHSTVIICPDCGSHLKTKSELNKHKQRHSKPHKCDVSGCSREEGFSTINDLDRHKRSVHRDTDTGGPRYRCHLAPCHNKKKIWPRADNFRSHLRRLHGVRAVDDDLAQYLIPSQQQDVGSLTEGMDASDSTIESFRFTPYDQEMPPSMWANHQSQDLEMTHLVVDSTGPRTELDISVASPASHGFSGLGEPNTGHAVRELPLGIMQGGNPQQRGMNCRKHLNLTQCGMDSNSNTSDATTPPETTLAPHPLMGGNLRNPSMEIEQNPTADRSDQVNPSDTSASEADADSSSEDLHEQENLMRRNDHSEVSHDPKAISAGSLVEVIKTPPFLSQGIDTGGAHNISPTSTQDITMTDQQINEFLQAVPEALLEKFLRERHNPFRIEPIKARTTVQANAQHPCPGCHKSFQRRCDLKKHIKRHDKPYGCTFLNCDKSFGSKNDWKRHETSQHTQLEVWKCNERASKGVGTICGKVFPRREDFKVHLQGTHNFRDVSALEAELHSCRIGRDCGLRYWCGFCEKIMEISHPAMQPSTKRFDHIDDHFCGRNTDKRSISDWKHLETELSASGSTPSSDKMETPKSSPEHQATARVSPSKNGRLVSDSTLPGKRKLDDDSECPESRRPRGRLATMWTCCNCTMQSSFRFNRACVSCSHSRCVDCPVET | – | binds |

Source: paper PMC10617112
